No constants are given. Whether binding was seen depends on the method and setting. In cells and extracts the contact can be indirect.

Chains of the proteins cited; added tags and fusions are not shown.
UniProt Q9WVE8: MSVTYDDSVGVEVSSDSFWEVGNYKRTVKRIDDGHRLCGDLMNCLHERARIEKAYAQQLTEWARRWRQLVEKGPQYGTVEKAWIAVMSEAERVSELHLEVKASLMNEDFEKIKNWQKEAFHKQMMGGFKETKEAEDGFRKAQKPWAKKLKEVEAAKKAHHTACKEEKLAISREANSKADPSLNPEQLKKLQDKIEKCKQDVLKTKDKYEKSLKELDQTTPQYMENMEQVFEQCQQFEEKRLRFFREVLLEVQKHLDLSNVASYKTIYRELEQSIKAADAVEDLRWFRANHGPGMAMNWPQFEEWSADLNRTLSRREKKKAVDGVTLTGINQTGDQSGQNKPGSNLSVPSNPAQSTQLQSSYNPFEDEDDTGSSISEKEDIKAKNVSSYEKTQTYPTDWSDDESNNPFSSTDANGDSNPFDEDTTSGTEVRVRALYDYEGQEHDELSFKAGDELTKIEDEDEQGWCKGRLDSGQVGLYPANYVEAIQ

This assay addresses T1, EEA-1 (mouse (endogenous in bEnd3)) (UniProt Q8BL66).
T1 sequence: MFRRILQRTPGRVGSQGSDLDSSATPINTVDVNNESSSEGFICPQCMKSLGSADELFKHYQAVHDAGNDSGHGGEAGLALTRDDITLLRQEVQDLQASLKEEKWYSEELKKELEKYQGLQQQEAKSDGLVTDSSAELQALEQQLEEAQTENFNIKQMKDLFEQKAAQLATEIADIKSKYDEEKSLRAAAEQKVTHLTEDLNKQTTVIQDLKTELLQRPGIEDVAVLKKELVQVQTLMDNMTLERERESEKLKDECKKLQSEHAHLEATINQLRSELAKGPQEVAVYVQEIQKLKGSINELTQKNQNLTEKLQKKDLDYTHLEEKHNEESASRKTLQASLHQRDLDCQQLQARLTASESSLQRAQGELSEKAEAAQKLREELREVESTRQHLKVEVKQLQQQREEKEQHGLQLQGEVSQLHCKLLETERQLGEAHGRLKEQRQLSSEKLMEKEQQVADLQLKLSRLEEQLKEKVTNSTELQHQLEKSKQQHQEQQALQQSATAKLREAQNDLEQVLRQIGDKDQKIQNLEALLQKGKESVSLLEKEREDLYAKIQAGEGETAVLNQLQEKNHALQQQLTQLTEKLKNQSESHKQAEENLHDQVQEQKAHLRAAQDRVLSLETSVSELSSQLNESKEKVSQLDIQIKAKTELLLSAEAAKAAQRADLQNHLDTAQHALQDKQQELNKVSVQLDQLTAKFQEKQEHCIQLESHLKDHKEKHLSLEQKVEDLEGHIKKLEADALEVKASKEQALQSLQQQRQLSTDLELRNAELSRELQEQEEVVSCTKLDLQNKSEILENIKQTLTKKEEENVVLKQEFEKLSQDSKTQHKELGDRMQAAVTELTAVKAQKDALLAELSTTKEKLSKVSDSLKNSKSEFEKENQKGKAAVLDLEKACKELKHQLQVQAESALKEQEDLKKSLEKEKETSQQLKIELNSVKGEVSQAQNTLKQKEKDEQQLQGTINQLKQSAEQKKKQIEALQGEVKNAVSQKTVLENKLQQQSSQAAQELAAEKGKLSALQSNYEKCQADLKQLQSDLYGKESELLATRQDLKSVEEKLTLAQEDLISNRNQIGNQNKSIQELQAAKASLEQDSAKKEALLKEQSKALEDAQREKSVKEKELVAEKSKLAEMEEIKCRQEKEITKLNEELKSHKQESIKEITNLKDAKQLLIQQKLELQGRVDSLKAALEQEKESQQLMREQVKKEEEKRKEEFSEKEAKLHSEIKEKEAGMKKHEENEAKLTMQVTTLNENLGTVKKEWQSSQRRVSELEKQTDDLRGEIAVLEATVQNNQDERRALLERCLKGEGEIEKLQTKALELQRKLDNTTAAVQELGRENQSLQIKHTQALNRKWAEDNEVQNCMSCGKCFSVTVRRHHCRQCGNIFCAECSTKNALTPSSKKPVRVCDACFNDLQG
Put plainly: proximity ligation.

Regarding syndapin-2 (from UniProt Q9WVE8 1-486), the binding entry is reported as “no binding (tested: < 20 dots per cell)”.

The values are drawn from publication doi:10.1101/2020.07.12.199869.
